Source: the supplement of paper PMC12067093, “Discovery and optimisation of a covalent ligand for TRIM25 and its application to targeted protein ubiquitination” (Chemical Science, 2025)
Some of the results follow.

By UniProt entry, the sequences of proteins in these tests, tags left out. Where a name states a change or a piece, a line headed by the entry shows the natural chain unless it says otherwise.
UniProt Q7Z5K2: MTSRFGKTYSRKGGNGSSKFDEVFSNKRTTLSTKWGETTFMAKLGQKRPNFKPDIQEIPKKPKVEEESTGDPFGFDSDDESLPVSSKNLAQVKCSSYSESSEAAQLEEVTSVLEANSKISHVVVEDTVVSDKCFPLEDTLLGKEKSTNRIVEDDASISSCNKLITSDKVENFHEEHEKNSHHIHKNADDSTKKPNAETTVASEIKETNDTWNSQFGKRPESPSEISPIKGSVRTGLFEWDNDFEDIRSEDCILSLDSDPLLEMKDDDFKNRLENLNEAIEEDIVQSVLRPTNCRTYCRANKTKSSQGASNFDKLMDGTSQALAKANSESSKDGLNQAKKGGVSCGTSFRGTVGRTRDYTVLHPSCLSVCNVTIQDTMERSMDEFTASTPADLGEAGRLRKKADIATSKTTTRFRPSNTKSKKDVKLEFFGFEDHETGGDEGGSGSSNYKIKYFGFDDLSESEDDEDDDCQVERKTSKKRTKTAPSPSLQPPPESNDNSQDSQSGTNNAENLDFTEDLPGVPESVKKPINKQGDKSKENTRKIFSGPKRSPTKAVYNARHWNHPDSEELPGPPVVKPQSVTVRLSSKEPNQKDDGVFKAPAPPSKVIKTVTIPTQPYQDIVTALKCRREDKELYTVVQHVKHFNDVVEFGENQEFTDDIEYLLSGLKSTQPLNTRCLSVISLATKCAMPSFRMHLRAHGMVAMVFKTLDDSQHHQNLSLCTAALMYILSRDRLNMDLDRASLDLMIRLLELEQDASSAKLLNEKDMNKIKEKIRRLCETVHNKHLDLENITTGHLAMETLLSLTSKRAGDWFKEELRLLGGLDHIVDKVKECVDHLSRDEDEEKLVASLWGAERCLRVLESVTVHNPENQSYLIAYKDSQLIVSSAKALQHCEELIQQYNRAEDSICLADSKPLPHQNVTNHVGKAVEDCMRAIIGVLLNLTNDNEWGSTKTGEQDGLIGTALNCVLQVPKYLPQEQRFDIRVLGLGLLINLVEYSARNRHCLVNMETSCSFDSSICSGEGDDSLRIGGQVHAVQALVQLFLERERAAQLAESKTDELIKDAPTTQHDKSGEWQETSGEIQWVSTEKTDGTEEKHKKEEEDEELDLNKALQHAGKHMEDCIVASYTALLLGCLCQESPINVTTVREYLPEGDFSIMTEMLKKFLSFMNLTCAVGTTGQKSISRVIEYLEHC
UniProt Q8IV63: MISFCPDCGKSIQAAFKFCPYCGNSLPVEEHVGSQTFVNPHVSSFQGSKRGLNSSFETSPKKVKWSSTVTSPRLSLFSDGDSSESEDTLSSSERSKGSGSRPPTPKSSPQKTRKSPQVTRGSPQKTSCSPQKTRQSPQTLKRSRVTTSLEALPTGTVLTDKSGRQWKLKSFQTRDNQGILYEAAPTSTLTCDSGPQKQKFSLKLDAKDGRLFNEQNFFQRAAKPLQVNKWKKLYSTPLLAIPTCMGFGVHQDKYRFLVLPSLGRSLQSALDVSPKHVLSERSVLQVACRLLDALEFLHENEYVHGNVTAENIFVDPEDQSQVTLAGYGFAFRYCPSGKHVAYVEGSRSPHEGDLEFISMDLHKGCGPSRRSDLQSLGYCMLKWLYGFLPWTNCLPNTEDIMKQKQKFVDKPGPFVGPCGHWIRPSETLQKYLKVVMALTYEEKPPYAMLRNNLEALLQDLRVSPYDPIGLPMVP
UniProt O00507: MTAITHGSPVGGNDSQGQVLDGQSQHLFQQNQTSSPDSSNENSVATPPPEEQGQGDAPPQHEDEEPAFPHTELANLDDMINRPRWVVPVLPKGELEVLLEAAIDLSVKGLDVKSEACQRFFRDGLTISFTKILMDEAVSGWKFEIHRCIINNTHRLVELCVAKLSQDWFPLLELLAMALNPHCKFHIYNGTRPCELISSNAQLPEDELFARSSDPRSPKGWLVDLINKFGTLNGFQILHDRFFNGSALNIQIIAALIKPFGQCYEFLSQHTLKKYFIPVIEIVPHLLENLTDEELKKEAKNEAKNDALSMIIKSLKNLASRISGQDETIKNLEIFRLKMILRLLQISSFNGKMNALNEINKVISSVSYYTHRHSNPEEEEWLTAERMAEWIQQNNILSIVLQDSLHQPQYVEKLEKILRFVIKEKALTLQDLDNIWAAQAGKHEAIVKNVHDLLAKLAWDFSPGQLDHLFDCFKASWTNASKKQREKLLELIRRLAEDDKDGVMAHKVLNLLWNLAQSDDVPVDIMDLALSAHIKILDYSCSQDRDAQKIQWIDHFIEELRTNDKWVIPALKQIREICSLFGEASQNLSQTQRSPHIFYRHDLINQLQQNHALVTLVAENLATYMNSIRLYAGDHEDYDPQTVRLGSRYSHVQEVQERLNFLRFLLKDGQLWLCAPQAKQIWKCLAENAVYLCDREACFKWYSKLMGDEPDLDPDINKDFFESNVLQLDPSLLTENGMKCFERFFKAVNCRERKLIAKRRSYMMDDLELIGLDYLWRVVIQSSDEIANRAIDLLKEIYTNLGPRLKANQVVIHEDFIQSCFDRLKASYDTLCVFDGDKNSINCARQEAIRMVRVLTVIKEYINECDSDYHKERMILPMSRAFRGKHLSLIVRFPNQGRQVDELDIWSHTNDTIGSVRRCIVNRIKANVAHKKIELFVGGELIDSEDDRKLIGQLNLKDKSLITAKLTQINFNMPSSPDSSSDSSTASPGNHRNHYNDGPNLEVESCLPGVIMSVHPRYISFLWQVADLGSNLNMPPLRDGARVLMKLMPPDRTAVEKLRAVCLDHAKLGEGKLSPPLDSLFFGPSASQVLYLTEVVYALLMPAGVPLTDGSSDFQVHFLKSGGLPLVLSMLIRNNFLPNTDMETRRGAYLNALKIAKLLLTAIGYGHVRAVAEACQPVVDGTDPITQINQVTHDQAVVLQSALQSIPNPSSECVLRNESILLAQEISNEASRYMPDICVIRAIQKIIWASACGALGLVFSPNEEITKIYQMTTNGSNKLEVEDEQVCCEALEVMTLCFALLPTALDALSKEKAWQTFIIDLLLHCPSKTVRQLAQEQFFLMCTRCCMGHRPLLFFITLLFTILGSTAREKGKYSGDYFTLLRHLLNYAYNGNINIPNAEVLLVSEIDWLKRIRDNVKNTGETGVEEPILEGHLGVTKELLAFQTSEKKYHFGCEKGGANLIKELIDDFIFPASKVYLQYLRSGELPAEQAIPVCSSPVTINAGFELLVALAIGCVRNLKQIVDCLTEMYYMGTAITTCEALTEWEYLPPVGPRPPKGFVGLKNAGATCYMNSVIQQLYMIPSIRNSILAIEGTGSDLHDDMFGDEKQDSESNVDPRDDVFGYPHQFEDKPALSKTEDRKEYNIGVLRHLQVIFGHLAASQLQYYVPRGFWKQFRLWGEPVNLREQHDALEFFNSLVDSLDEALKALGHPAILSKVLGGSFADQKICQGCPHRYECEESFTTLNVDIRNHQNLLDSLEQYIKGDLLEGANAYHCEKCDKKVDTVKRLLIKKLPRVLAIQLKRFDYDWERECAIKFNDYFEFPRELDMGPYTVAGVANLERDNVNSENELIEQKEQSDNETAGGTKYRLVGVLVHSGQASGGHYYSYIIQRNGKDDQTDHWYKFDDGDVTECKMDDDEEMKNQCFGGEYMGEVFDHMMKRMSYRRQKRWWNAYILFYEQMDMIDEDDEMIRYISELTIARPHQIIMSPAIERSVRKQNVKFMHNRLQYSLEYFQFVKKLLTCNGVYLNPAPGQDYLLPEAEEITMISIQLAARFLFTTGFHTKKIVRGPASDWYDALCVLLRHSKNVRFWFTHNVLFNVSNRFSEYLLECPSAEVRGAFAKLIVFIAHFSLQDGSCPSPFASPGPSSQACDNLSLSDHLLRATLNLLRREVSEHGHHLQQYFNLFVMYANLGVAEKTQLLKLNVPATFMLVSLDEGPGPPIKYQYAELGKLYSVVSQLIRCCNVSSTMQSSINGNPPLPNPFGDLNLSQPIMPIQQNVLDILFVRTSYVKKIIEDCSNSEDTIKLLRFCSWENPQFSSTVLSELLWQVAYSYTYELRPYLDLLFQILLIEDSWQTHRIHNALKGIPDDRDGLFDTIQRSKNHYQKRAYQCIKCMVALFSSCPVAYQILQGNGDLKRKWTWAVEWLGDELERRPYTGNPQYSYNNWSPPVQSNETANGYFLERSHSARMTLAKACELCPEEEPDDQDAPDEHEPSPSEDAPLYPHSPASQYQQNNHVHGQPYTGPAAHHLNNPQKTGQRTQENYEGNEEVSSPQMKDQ
UniProt Q8N1B4: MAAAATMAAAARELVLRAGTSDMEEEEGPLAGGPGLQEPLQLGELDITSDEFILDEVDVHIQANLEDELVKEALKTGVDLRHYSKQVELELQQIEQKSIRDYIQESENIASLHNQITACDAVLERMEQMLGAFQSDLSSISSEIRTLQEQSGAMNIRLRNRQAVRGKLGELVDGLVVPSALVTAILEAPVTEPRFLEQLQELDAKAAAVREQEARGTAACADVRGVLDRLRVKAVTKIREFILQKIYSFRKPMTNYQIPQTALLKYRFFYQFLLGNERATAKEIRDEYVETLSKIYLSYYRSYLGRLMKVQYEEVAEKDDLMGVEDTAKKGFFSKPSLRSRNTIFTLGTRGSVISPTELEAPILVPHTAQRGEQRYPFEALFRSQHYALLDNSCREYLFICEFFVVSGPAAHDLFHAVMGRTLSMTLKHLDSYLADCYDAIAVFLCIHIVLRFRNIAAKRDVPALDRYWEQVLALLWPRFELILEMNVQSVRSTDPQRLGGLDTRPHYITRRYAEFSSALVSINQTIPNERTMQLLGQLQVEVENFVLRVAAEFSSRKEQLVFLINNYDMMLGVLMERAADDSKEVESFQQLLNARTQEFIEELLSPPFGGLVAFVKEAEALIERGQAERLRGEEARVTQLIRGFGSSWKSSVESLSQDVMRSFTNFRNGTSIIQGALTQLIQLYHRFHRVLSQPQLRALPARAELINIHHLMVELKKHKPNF
UniProt Q9Y5J1: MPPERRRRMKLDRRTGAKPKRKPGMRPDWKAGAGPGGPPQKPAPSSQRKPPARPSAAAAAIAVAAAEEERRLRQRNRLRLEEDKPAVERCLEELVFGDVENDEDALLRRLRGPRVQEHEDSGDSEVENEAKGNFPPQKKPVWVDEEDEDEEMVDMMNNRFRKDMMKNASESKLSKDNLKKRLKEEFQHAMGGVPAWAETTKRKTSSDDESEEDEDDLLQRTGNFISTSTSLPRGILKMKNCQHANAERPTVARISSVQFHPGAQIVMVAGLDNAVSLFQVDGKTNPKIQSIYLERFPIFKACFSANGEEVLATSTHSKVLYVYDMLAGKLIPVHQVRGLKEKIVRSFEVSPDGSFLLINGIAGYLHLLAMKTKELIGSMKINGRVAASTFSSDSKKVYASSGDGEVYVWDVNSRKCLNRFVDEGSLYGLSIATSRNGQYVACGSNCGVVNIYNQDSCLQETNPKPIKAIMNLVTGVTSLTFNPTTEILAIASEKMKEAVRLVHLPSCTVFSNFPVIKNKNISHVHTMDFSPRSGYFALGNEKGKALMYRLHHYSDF

Compound: Cc1cc(ccc1-c1ccccc1)C(=O)N1CCCN(CC1)C(=O)CCl [compound 10]
Experiment: probe-labelled cysteine peptide fold change vs DMSO (competition) (log2 fold change); higher = less target engagement (more negative = stronger competition)
Details: THP-1, incubation time: 4 h
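Further: competitive profiling in live THP-1 cells: cysteine peptides tagged with an iodoacetamide desthiobiotin (IA-DTB) probe, intensity after compound treatment relative to DMSO-treated cells.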

Row | Target | probe-labelled cysteine peptide fold change (10 µM) | probe-labelled cysteine peptide fold change (50 µM)
1 | WAPL_Q7Z5K2_344_KGGVSCGTSFR (UniProt Q7Z5K2) | -0.117 | -0.401
2 | VRK3_Q8IV63_128_TSCSPQK (UniProt Q8IV63) | -0.0845 | -0.292
3 | USP9Y_O00507_674_DGQLWLCAPQAK (UniProt O00507) | -0.00329 | -0.161
4 | UTRN_P46939_1218_VPSGGQELTSELNVVLENYQLLCNR (UniProt P46939) | 0.0375 | 0.279
5 | VPS52_Q8N1B4_119_SIRDYIQESENIASLHNQITACDAVLER (UniProt Q8N1B4) | 0.0101 | -0.415
6 | UTP18_Q9Y5J1_90_CLEELVFGDVENDEDALLRR (UniProt Q9Y5J1) | 0.219 | -0.062
